Results are given in words; binding and its absence hold for the method and conditions named. In cells and extracts the contact can be indirect. Here binding means that the protein was enriched with, or labelled near, the bait; the list need not be complete. No binding means not detected with the bait.

The chains behind the UniProt entries cited, without tags or fusion partners.
UniProt P42898: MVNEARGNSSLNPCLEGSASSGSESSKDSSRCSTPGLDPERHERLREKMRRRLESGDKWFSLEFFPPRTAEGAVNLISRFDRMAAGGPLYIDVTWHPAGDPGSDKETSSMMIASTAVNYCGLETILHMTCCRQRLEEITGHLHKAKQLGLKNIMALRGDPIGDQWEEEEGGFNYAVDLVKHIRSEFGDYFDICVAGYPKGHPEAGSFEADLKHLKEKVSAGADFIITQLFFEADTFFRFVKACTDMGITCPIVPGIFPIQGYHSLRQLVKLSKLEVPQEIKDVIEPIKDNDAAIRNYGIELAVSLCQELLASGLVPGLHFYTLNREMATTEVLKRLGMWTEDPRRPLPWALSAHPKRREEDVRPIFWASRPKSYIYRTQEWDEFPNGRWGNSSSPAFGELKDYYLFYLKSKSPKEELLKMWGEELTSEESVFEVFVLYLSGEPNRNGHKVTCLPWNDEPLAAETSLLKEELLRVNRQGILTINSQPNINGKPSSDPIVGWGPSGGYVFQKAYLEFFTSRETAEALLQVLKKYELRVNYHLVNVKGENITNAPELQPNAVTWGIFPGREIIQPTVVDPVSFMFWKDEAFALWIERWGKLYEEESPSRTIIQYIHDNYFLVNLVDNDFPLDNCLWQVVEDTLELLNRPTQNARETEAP
UniProt P12270: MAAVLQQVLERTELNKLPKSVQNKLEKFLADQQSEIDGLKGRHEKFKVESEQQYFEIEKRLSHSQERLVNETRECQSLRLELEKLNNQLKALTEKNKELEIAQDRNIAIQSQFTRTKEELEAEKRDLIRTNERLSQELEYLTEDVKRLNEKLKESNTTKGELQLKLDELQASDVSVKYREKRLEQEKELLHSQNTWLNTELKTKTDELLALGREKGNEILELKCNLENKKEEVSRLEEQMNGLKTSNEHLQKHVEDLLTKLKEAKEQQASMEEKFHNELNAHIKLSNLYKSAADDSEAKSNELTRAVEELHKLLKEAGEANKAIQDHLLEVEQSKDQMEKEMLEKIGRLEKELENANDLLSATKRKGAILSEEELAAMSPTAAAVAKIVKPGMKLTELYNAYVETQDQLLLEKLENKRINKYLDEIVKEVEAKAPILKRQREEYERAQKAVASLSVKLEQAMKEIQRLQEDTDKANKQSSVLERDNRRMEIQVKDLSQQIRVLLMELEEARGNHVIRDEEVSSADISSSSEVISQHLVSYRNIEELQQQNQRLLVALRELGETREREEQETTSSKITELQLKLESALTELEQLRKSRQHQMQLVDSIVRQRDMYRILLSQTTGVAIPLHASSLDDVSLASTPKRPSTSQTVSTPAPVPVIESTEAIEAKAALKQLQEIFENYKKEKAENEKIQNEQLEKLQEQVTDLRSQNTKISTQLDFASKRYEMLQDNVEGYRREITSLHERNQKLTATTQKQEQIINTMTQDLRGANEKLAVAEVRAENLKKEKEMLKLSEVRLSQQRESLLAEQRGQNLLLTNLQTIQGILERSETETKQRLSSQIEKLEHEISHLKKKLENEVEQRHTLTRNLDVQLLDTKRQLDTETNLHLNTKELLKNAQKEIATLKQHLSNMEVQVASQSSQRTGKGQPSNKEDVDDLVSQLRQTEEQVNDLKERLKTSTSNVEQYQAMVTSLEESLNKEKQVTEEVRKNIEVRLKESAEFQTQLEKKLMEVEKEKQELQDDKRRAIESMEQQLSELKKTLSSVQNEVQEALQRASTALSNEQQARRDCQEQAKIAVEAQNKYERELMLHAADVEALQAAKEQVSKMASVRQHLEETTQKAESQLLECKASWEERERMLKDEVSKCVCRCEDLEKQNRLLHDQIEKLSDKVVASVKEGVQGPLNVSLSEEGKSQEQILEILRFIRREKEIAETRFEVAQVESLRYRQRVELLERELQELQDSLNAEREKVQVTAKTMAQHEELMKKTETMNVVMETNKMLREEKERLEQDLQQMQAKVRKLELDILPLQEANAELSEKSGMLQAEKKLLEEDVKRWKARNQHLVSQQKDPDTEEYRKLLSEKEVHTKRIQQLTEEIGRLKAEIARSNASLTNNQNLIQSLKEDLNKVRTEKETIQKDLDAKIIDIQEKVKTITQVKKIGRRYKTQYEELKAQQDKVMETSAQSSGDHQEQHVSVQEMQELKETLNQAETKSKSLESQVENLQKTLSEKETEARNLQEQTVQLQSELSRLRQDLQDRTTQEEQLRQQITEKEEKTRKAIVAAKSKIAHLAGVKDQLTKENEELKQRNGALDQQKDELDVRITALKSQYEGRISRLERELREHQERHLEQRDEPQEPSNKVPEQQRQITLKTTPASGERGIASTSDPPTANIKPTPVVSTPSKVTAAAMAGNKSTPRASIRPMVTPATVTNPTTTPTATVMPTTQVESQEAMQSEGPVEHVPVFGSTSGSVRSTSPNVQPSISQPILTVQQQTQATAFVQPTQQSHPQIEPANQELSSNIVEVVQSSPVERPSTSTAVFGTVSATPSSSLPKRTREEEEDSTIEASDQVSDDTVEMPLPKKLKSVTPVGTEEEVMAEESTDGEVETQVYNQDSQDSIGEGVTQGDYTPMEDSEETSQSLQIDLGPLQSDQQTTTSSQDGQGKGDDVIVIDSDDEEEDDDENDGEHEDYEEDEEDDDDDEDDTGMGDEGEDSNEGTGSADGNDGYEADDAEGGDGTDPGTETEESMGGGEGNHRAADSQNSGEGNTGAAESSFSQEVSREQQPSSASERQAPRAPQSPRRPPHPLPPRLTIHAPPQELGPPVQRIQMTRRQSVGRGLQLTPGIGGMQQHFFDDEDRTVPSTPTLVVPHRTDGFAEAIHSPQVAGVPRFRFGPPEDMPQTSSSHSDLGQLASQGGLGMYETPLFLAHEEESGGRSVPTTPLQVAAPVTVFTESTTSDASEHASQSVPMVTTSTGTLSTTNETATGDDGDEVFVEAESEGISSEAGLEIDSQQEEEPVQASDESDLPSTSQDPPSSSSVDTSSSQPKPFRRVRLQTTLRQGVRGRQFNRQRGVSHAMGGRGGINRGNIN
UniProt P54619: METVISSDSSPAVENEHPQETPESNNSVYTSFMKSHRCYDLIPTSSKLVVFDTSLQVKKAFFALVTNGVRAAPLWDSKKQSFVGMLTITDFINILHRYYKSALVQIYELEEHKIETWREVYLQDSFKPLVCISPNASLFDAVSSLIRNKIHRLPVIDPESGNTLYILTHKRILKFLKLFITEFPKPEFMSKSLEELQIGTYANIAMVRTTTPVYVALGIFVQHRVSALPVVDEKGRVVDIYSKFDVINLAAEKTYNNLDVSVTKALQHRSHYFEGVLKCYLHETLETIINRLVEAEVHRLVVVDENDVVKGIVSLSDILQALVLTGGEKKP
UniProt Q9UGJ0: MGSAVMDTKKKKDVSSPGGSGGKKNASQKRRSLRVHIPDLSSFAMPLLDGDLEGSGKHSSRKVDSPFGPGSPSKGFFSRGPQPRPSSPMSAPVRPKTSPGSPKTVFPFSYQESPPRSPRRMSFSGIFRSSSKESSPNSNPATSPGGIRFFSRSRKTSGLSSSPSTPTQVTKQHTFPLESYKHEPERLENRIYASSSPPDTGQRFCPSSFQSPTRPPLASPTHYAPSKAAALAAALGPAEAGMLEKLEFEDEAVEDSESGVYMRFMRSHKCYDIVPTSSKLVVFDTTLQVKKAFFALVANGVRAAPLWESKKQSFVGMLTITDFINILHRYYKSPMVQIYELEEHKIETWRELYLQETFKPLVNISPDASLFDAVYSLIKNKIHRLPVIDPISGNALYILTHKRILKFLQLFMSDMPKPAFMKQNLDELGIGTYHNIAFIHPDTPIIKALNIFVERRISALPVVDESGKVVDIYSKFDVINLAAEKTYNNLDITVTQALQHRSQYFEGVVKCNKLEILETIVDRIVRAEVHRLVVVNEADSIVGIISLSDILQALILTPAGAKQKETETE
UniProt Q99873: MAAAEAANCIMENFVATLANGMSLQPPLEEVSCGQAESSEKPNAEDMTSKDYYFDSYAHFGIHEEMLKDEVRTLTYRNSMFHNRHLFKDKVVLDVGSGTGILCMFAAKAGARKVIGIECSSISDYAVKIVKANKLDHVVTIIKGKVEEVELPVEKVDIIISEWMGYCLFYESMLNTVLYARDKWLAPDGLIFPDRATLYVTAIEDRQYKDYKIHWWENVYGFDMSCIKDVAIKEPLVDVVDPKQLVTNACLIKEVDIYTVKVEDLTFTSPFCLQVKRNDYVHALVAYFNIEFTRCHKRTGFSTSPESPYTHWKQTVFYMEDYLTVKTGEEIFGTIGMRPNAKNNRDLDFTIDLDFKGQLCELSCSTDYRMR

Sequences and labels used below:
T1: methylenetetrahydrofolate dehydrogenase 2 (MTHFD2) (human (endogenous in HCT116 and H358)) (UniProt P13995)
T1 sequence: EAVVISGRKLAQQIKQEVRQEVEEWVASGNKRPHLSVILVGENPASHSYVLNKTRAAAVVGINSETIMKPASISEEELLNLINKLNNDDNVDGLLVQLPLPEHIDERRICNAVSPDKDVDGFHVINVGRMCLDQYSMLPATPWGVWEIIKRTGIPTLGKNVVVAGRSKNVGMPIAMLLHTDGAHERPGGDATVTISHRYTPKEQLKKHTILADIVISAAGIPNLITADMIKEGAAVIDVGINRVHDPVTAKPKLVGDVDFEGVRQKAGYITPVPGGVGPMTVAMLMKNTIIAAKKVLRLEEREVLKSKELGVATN

B1: MAD1L1 (protein, UniProt Q9Y6D9 1-718)
chain: MEDLGENTMVLSTLRSLNNFISQRVEGGSGLDISTSAPGSLQMQYQQSMQLEERAEQIRSKSHLIQVEREKMQMELSHKRARVELERAASTSARNYEREVDRNQELLTRIRQLQEREAGAEEKMQEQLERNRQCQQNLDAASKRLREKEDSLAQAGETINALKGRISELQWSVMDQEMRVKRLESEKQELQEQLDLQHKKCQEANQKIQELQASQEARADHEQQIKDLEQKLSLQEQDAAIVKNMKSELVRLPRLERELKQLREESAHLREMRETNGLLQEELEGLQRKLGRQEKMQETLVGLELENERLLAKLQSWERLDQTMGLSIRTPEDLSRFVVELQQRELALKDKNSAVTSSARGLEKARQQLQEELRQVSGQLLEERKKRETHEALARRLQKRVLLLTKERDGMRAILGSYDSELTPAEYSPQLTRRMREAEDMVQKVHSHSAEMEAQLSQALEELGGQKQRADMLEMELKMLKSQSSSAEQSFLFSREEADTLRLKVEELEGERSRLEEEKRMLEAQLERRALQGDYDQSRTKVLHMSLNPTSVARQRLREDHSQLQAECERLRGLLRAMERGGTVPADLEAAAASLPSSKEVAELKKQVESAELKNQRLKEVFQTKIQEFRKACYTLTGYQIDITTENQYRLTSLYAEHPGDCLIFKATSPSGSKMQLLETEFSHTVGELIEVHLRRQDSIPAFLSSLTLELFSRQTVA
B2: N-Lysine Methyltransferase KMT5A (enzyme, UniProt Q9NQR1 1-393)
chain: MGEGGAAAALVAAAAAAAAAAAAVVAGQRRRRLGRRARCHGPGRAAGGKMSKPCAVEAAAAAVAATAPGPEMVERRGPGRPRTDGENVFTGQSKIYSYMSPNKCSGMRFPLQEENSVTHHEVKCQGKPLAGIYRKREEKRNAGNAVRSAMKSEEQKIKDARKGPLVPFPNQKSEAAEPPKTPPSSCDSTNAAIAKQALKKPIKGKQAPRKKAQGKTQQNRKLTDFYPVRRSSRKSKAELQSEERKRIDELIESGKEEGMKIDLIDGKGRGVIATKQFSRGDFVVEYHGDLIEITDAKKREALYAQDPSTGCYMYYFQYLSKTYCVDATRETNRLGRLINHSKCGNCQTKLHDIDGVPHLILIASRDIAAGEELLYDYGDRSKASIEAHPWLKH
B3: Kinesin KIF4A (protein, UniProt O95239 1-1232)
chain: MKEEVKGIPVRVALRCRPLVPKEISEGCQMCLSFVPGEPQVVVGTDKSFTYDFVFDPSTEQEEVFNTAVAPLIKGVFKGYNATVLAYGQTGSGKTYSMGGAYTAEQENEPTVGVIPRVIQLLFKEIDKKSDFEFTLKVSYLEIYNEEILDLLCPSREKAQINIREDPKEGIKIVGLTEKTVLVALDTVSCLEQGNNSRTVASTAMNSQSSRSHAIFTISLEQRKKSDKNSSFRSKLHLVDLAGSERQKKTKAEGDRLKEGININRGLLCLGNVISALGDDKKGGFVPYRDSKLTRLLQDSLGGNSHTLMIACVSPADSNLEETLNTLRYADRARKIKNKPIVNIDPQTAELNHLKQQVQQLQVLLLQAHGGTLPGSITVEPSENLQSLMEKNQSLVEENEKLSRGLSEAAGQTAQMLERIILTEQANEKMNAKLEELRQHAACKLDLQKLVETLEDQELKENVEIICNLQQLITQLSDETVACMAAAIDTAVEQEAQVETSPETSRSSDAFTTQHALRQAQMSKELVELNKALALKEALARKMTQNDSQLQPIQYQYQDNIKELELEVINLQKEKEELVLELQTAKKDANQAKLSERRRKRLQELEGQIADLKKKLNEQSKLLKLKESTERTVSKLNQEIRMMKNQRVQLMRQMKEDAEKFRQWKQKKDKEVIQLKERDRKRQYELLKLERNFQKQSNVLRRKTEEAAAANKRLKDALQKQREVADKRKETQSRGMEGTAARVKNWLGNEIEVMVSTEEAKRHLNDLLEDRKILAQDVAQLKEKKESGENPPPKLRRRTFSLTEVRGQVSESEDSITKQIESLETEMEFRSAQIADLQQKLLDAESEDRPKQRWENIATILEAKCALKYLIGELVSSKIQVSKLESSLKQSKTSCADMQKMLFEERNHFAEIETELQAELVRMEQQHQEKVLYLLSQLQQSQMAEKQLEESVSEKEQQLLSTLKCQDEELEKMREVCEQNQQLLRENEIIKQKLTLLQVASRQKHLPKDTLLSPDSSFEYVPPKPKPSRVKEKFLEQSMDIEDLKYCSEHSVNEHEDGDGDDDEGDDEEWKPTKLVKVSRKNIQGCSCKGWCGNKQCGCRKQKSDCGVDCCCDPTKCRNRQQGKDSLGTVERTQDSEGSFKLEDPTEVTPGLSFFNPVCATPNSKILKEMCDVEQVLSKKTPPAPSPFDLPELKHVATEYQENKAPGKKKKRALASNTSFFSGCSPIEEEAH

The target of this assay is T1, methylenetetrahydrofolate dehydrogenase 2 (MTHFD2) (human (endogenous in HCT116 and H358)). Briefly: affinity purification with mass spectrometry.
As to “Methylenetetrahydrofolate Reductase (MTHFR) (from UniProt P42898 1-656) (enzyme)”, the binding entry was “no binding”.

For the molecule “Nucleoprotein TPR (from UniProt P12270 1-2363)”, the binding result is listed as “binds”.

On to PRKAG1 (from UniProt P54619 1-331), for which the binding entry is listed as “binds”.

Take PRKAG2 (from UniProt Q9UGJ0 1-569): the binding entry is “binds”.

“Protein Arginine N-Methyltransferase 1 (PRMT1) (from UniProt Q99873 1-371) (enzyme)”: the binding entry is reported as “binds”.

With B1, the binding result is reported as “binds”.

Consider B2, for which the binding entry is listed as “binds”.

For B3, the binding entry is recorded as “binds”.

Values taken from article doi:10.1101/2023.06.01.543193.
